Assay results taken from the supplement of paper PMC8732350.
Counter-ions that a name gives are not always drawn. ± gives the standard deviation of the averaged measurements. Some of the results follow. This data set is noisy: repeats of one test often differ as much as different tests do.

tested on: A549; assay: surface PD-L1 immunofluorescence intensity relative to IFN-gamma-only control (ratio); higher = more PD-L1 expression; conditions: 10 µM; exposure time 24 h; IFN-gamma 100 ng/mL

| Compound | surface PD-L1 immunofluorescence intensity |
| --- | --- |
| N=C(N)SCCc1c[nH]cn1 [Imetit dihydrobromide] | 1.15 |
| C[C@@H]1C[C@H]2[C@@H]3CCC4=CC(=O)C=C[C@]4(C)[C@@]3(F)[C@@H](O)C[C@]2(C)[C@@]1(O)C(=O)CO [Dexamethasone] | 0.805 ± 0.018 |
| c1ccc(CN2CCC3(CCc4ccccc43)CC2)cc1 [L-693,403 maleate] | 1.04 |
| O=C(O)COC(=O)Cc1ccccc1Nc1c(Cl)cccc1Cl [Aceclofenac] | 0.948 |
| N=C(N)S/C=C\C(=O)O [ZAPA sulphate] | 1.11 |
| Cc1nnc(NS(=O)(=O)c2ccc(N)cc2)s1 [Sulfamethizole] | 0.996 |
| CN(C)c1ccc(/C=C2/C(=O)Nc3ccccc32)cc1 | 1.07 |
| CCN1CCC[C@H]1CNC(=O)c1c(OC)ccc(Br)c1OC [Remoxipride hydrochloride] | 1.07 |
| CCN1CCC[C@H]1CNC(=O)c1c(OC)ccc(Br)c1OC [Remoxipride Hydrochloride] | 1.01 |
| CCN1CCN(c2cc3c(cc2F)c(=O)c(C(=O)O)cn3C2CC2)CC1 [Enrofloxacin] | 0.92 |
| COc1ccccc1S(=O)(=O)Nc1ccc2c(c1)CN(C)C(=O)N2 | 0.93 |
| CC1CC(OC(=O)C(O)c2ccccc2)CC(C)(C)N1C (configuration not stated) [Eucatropine hydrochloride] | 0.966 |
| NCCCC[C@H](N[C@@H](CCc1ccccc1)C(=O)O)C(=O)N1CCC[C@H]1C(=O)O [Lisinopril] | 0.94 ± 0.076 |
| CC(C)(C)NC[C@H](O)COc1nsnc1N1CCOCC1 [(S)-Timolol maleate] | 1.11 |
| CC(C)(C)NC[C@H](O)COc1nsnc1N1CCOCC1 [Timolol maleate salt] | 1.06 |
| O=C(Nc1cccc2c(=O)cc(-c3nnn[nH]3)oc12)c1ccc(OCCCCc2ccccc2)cc1 [Pranlukast] | 0.919 ± 0.088 |
| NC(=O)CC[C@@H](N)C(=O)O [D-glutamine] | 0.9 |
| CC(C)[C@H]1C(=O)N[C@@H](CCCNC(=N)N)C(=O)NCC(=O)N[C@@H](CC(=O)O)C(=O)N[C@H](Cc2ccccc2)C(=O)N1C | 1.08 |
| CCOC(=O)OC(C)OC(=O)[C@@H]1N2C(=O)[C@@H](NC(=O)[C@H](N)c3ccccc3)[C@H]2SC1(C)C (some centres not stated) [Bacampicillin hydrochloride] | 1.01 |

A stretch of the results above, as a working copy:

| Compound | surface PD-L1 immunofluorescence intensity |
| --- | --- |
| Cc1nnc(NS(=O)(=O)c2ccc(N)cc2)s1 [Sulfamethizole] | 0.996 |
| CN(C)c1ccc(/C=C2/C(=O)Nc3ccccc32)cc1 | 1.07 |
| CCN1CCC[C@H]1CNC(=O)c1c(OC)ccc(Br)c1OC [Remoxipride hydrochloride] | 1.07 |

The listing continues.

| Compound | surface PD-L1 immunofluorescence intensity |
| --- | --- |
| CCOC(=O)[C@H](CCc1ccccc1)N[C@H]1CCc2ccccc2N(CC(=O)O)C1=O [Benazepril HCl] | 1.16 |
| CCOC(=O)[C@H](CCc1ccccc1)N[C@H]1CCc2ccccc2N(CC(=O)O)C1=O [Benazepril hydrochloride] | 1.07 |
| COC1=C(OC)C(=O)C(CCCCCCCCCCO)=C(C)C1=O [Idebenone] | 0.9667 ± 0.0042 |
| CSc1nc(NC2CCCC2)c([N+](=O)[O-])c(NC2CCCC2)n1 | 1.03 |
| CCOC(=O)c1ccc(OC(=O)CCCCCNC(=N)N)cc1 [Gabexate mesilate] | 1.06 |
| CCOC(=O)c1ccc(OC(=O)CCCCCNC(=N)N)cc1 [Gabexate mesylate] | 0.897 ± 0.045 |
| CC(C)(C)Cn1c(N)nc2ccc(-c3[nH]c(C(C)(C)C)nc3-c3ccc(F)cc3)nc21 | 0.957 |
| CCCN[C@H]1CCc2nc(N)sc2C1 [Pramipexole] | 1.02 |
| CNC(=O)c1cc2c(cn1)[nH]c1ccccc12 | 1.06 |
| Cc1cc(=O)oc2cc(O)ccc12 [Hymecromone] | 0.945 |
| CC(COc1ccccc1)N(CCCl)Cc1ccccc1 (configuration not stated) [Phenoxybenzamine hydrochloride] | 0.957 |
| CCCNC(C)C(=O)Nc1ccccc1C (configuration not stated) [Prilocaine hydrochloride] | 0.925 |
| COc1ccc(CN(CCN(C)C)c2ccccn2)cc1 [Mepyramine maleate] | 1.01 |
| COc1ccc(CN(CCN(C)C)c2ccccn2)cc1 [Pyrilamine maleate] | 0.97 |
| COc1cc(/C=C/C(=O)N2CCN(CC(=O)N3CCCC3)CC2)cc(OC)c1OC [Cinepazide maleate] | 1.03 |
| O=C(Nc1ccc(OC(F)(F)F)cc1)c1sccc1NCc1ccnc2ccccc12 | 1.11 |
| CC(=O)c1ccc(S(=O)(=O)NC(=O)NC2CCCCC2)cc1 [Acetohexamide] | 0.945 |
| CCCCC[C@H](O)/C=C/[C@@H]1[C@@H](C/C=C\CCCC(=O)O)[C@@H](O)C[C@H]1O [Dinoprost trometamol] | 0.961 |
